Among the data in article PMC4560422 are binding values, retold here.

Amino acid sequences for entries named in this document (tags omitted). Residues count along the entry.
UniProt Q8VHY0, residues 30-2327: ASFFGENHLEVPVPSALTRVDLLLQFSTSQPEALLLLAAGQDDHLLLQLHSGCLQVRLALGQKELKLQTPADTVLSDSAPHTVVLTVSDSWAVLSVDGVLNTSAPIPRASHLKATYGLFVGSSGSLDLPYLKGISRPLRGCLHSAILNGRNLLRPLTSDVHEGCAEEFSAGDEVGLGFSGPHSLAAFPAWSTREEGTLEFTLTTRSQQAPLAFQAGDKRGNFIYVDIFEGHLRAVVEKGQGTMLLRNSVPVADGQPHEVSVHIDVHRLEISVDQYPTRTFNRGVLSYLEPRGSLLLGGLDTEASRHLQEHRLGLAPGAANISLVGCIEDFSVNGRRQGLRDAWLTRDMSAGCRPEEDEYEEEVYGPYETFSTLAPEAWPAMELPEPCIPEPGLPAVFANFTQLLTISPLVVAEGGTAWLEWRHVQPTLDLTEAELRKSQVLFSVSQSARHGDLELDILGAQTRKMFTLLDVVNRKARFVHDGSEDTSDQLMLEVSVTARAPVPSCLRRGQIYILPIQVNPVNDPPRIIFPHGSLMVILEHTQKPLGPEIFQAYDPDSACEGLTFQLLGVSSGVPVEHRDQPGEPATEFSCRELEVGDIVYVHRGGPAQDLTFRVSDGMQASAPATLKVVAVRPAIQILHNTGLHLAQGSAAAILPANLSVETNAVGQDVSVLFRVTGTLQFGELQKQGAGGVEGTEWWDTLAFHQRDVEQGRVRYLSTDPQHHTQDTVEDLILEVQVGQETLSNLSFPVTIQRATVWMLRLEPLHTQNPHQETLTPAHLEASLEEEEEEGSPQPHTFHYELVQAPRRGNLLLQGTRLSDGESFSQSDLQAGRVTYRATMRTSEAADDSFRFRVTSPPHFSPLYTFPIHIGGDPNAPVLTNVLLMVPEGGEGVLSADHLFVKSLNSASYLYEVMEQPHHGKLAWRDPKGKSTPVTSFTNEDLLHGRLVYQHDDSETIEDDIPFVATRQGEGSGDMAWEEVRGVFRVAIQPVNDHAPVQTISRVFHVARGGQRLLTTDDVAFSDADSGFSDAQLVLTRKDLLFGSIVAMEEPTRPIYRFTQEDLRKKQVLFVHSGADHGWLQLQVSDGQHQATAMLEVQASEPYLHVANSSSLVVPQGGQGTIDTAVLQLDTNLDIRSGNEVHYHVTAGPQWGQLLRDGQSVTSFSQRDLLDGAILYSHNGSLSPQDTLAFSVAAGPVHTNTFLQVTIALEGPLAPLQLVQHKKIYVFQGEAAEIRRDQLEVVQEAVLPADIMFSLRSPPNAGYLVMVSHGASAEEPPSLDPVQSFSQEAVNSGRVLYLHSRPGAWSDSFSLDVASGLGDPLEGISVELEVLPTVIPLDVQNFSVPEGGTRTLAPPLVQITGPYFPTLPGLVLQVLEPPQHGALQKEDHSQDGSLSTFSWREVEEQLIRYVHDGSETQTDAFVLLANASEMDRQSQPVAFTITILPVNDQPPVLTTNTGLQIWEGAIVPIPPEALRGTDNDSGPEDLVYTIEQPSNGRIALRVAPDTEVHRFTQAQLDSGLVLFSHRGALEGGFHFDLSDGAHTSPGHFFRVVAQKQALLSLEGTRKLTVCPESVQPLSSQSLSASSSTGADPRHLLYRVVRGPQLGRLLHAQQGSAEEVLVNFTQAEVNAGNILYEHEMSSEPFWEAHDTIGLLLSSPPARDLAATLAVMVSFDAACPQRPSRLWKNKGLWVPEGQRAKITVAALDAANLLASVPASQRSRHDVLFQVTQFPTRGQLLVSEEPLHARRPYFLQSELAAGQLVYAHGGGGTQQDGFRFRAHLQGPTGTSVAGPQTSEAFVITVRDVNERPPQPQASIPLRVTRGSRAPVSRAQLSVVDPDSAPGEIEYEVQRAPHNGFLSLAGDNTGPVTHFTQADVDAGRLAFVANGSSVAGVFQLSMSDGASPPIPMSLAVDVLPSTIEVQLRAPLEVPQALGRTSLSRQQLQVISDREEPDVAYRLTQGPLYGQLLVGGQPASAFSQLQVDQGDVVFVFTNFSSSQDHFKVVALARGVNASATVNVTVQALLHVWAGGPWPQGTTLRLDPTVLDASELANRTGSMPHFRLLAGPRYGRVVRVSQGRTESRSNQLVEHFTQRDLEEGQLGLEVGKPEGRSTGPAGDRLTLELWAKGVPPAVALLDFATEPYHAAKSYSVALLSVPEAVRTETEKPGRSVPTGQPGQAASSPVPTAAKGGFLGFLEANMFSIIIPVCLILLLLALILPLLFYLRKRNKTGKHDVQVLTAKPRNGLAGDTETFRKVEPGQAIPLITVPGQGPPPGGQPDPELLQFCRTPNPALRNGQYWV

No constants are given. Whether binding was seen depends on the method and setting. For some of these results: In cells and extracts the contact can be indirect. Some binding calls cover weakened binding; strength is not graded here.

The target in test [1] is T1, OMI/HtrA2, endogenous in Oli-neu cells, processed form (36 kDa / 37 kDa) (mouse (endogenous in Oli-neu)) (UniProt Q9JIY5).
T1 sequence: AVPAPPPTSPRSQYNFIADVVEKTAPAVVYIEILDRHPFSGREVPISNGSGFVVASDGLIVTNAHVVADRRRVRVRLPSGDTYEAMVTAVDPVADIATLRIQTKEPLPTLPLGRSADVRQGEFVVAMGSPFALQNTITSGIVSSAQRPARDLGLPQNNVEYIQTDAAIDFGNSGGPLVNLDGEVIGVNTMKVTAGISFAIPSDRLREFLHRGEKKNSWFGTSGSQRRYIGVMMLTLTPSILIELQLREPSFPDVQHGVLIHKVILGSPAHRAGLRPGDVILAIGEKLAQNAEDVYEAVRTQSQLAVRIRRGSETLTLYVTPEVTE
Put plainly: co-IP; Oli-neu lysate (50 mM Tris pH 7.4, 150 mM NaCl, 1% Triton X-100, in some cases 30 mM n-octyl-glucoside); IP with polyclonal OMI/HtrA2 antibody on protein A- or G-Sepharose, overnight at 4°C; blot for NG2 and COX-I.

Test [2] addresses NG2 proteoglycan (Nerve-glial antigen 2, chondroitin sulfate proteoglycan 4), endogenous in Oli-neu cells (mouse (endogenous in Oli-neu)) (UniProt Q8VHY0). Put plainly: co-IP; Oli-neu lysate (50 mM Tris pH 7.4, 150 mM NaCl, 1% Triton X-100, in some cases 30 mM n-octyl-glucoside); IP with monoclonal NG2 antibody coupled to CNBr-activated Sepharose; blot for OMI/HtrA2.
Test [3] has the same target. Put plainly: CoIP-ELISA; NG2 monoclonal antibody on 96 well plates holds living Oli-neu cells by NG2; cells stressed with H2O2 (25–500 μM; 4 h in the methods, five hours in the legend), then lysed; OMI/HtrA2 bound to captured NG2 detected with polyclonal OMI/HtrA2 antibody and HRP antibody. Background: In an ELISA, binding on a coated surface is turned into a signal by an enzyme label.

Regarding “COX-I, mitochondrial membrane protein, endogenous in Oli-neu cells (from UniProt P00397 1-514)”, in test [1], the binding result is “no binding”.
Still for that read-out and setting: the value for “NG2 proteoglycan (Nerve-glial antigen 2, chondroitin sulfate proteoglycan 4), endogenous in Oli-neu cells (from UniProt Q8VHY0 30-2327)” was “binds”.

B1: OMI/HtrA2, endogenous in Oli-neu cells, processed form (36 kDa / 37 kDa) (enzyme, UniProt Q9JIY5 134-458)
chain: AVPAPPPTSPRSQYNFIADVVEKTAPAVVYIEILDRHPFSGREVPISNGSGFVVASDGLIVTNAHVVADRRRVRVRLPSGDTYEAMVTAVDPVADIATLRIQTKEPLPTLPLGRSADVRQGEFVVAMGSPFALQNTITSGIVSSAQRPARDLGLPQNNVEYIQTDAAIDFGNSGGPLVNLDGEVIGVNTMKVTAGISFAIPSDRLREFLHRGEKKNSWFGTSGSQRRYIGVMMLTLTPSILIELQLREPSFPDVQHGVLIHKVILGSPAHRAGLRPGDVILAIGEKLAQNAEDVYEAVRTQSQLAVRIRRGSETLTLYVTPEVTE
With B1, the binding entry in test [2] and in test [3] was “binds” each time.
